## Results of single-concentration screens

Source: ChEMBL document CHEMBL3988442, “University of Dundee, Small-Polar-MMV Screening Library” (2021).

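Growth of Mycobacterium tuberculosis over 4 days (cholesterol / DPPC medium with tyloxapol); the read-out is not stated. Concentration: 50 µM. Direction is inferred from retests: higher values go with more growth inhibition. Size under these conditions: about 69,000 compounds, about 370 of them at 50% or above in at least one test.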

Values are the deposited “Percent Effect”, in %. The controls that fix the scale are not given in the record; negative values are as filed. The compounds are a random part of those screened. Two or more numbers in one place are separate tests of the same structure; such repeats can differ widely.

| structure | Percent Effect |
|---|---|
| `Cc1noc(CN(Cc2cccs2)C2CC2)n1` | -29.33 |
| `CCN(CC)CCC(=O)NCc1cc2n(n1)CCN(C(=O)N(C)C)C2` | -7.713 |
| `O=C(O)C(F)(F)F.O=C(O)C(F)(F)F.c1ccc(CNCC2Cn3nnc(-c4ccncc4)c3CO2)nc1` (centres unmarked) | 18.84 |
| `COc1ccc2c(c1)C(C(=O)NCCCN1CCN(C)CC1)CC(=O)N2` (centres unmarked) | -15.97 |
| `Cc1cnc(CN(C)Cc2cc3c(cc2OC(F)F)OCO3)o1` | -0.6457 |
| `Cc1occc1C(=O)N1CCC(C(O)c2ccc(F)cc2)CC1` (centres unmarked) | -7.026 |
| `O=C(O)C(F)(F)F.O=C(O)C(F)(F)F.O=C(O)C(F)(F)F.[H][C@@]12COC[C@]1(COc1cccnc1)CN(Cc1cccc(C)n1)C2` | -26.56 |
| `Cc1ccccc1NC(=O)NCCn1nc(C(F)(F)F)n(C)c1=O` | 8.124 |
| `O=C(O)c1cnc(N2CCC(O)CC2)nc1COc1cccc(F)c1` | -7.81 |
| `Cn1nc2c(cc1=O)CN(Cc1ccc(-n3cccn3)cc1)CC2` | 4.024 |
| `[H][C@@]12CCN(Cc3nc(C)cs3)C[C@@]1([H])O[C@H](c1noc(C)n1)C2` | -0.6777 |
| `Cc1nn(C)c(C)c1CCC(=O)N1CCCC1Cn1cccn1` (centres unmarked) | -4.386 & -5.449 |
| `CCC(C)Oc1ccc(CNCCNC(C)=O)cc1OC` (centres unmarked) | 3.506 |
| `Cc1cccc(OC2CCN(S(=O)(=O)Cc3cccc(F)c3)CC2)n1` | -0.2453 |
| `Cc1nocc1C(=O)N1CCCC2(CCN(c3ccsc3)C2=O)C1` (centres unmarked) | -15.72 |
| `Cc1cc(C(C)NC(=O)c2cnc3onc(C)c3c2)c(C)o1` (centres unmarked) | 3.407 |
| `[H][C@@]12CN(Cc3cccc(F)c3)C[C@]1([H])OCCN2CC(=O)N(C)C` | -5.517 |
| `Cn1cnnc1S(=O)(=O)C1CCN(C(=O)c2cccs2)CC1` | 18.29 |
| `N[C@H]1CN(C(=O)Cc2ccc(Cl)c(Cl)c2)C[C@@H]1C1CC1` | -5.677 |
| `COCc1ncc(CN2CC[C@@](C)(O)[C@@H](Cc3ccccc3)C2)cn1` | -16.63 |
| `CC(C)c1nc2n(n1)CC(NCc1nnc(C(C)C)o1)CC2` (centres unmarked) | -21.52 |
| `Cn1c(C(F)(F)F)nn(CCNC(=O)Nc2ccccc2F)c1=O` | 9.309 |
| `Oc1nc(N2CCOCC2)nc2c1CCN(Cc1cccc(F)c1)CC2` | -5.586 |
| `COCCc1noc(-c2cc(Cl)c3c(c2)OCCCO3)n1` | 21.89 |
| `Cc1nc(C2CCCN2C(=O)c2cc3c(s2)CCCC3)no1` (centres unmarked) | 2.244 |
| `Cc1nc(C(C)(C)C)sc1C(=O)NCCn1ccnc1` | -35.15 |
| `Cn1cccc1C(=O)N1CCCC2(CCCN2Cc2cccnc2)C1` (centres unmarked) | -12.51 |
| `Cc1ccccc1CSc1nc(N)cc(N2C[C@H](O)[C@@H](N(C)C)C2)n1` | -7.048 |
| `CCc1ocnc1C(=O)N1CCOCC1CC(=O)c1ccccc1` (centres unmarked) | -3.071 & 1.747 |
| `CN1CCN(c2cc(CNC(=O)Cn3cccn3)ccn2)CC1` | -0.4989 |
| `Cc1cccc(CN2CCC(Cc3ccccc3F)CC2)n1` | 30.94 |
| `Cc1ccc2c(CC(=O)N3C[C@@H](O)[C@H](N(C)C)C3)coc2c1` | -0.8247 |
| `Cc1ccc(S(=O)(=O)NCCOc2ccc3nnc(C)n3n2)s1` | 8.569 |
| `COc1ccc(CC(=O)NC2(C#N)CCOCC2)c(Cl)c1` | 18.71 |
| `Cc1cccc(C)c1Nc1noc2c1CN(C(=O)c1c[nH]nc1C)CC2` | -19.27 & -14.63 |
| `COc1ccc2c(c1)C(=O)N(C)C1(CCN(C(=O)OC(C)(C)C)CC1)N2` | -13.56 |
| `Cn1cc(C(=O)NC(Cn2cccn2)C(C)(C)C)cn1` (centres unmarked) | -0.4328 |
| `COc1ccc(OCCN2CCCN(Cc3noc(C)n3)CC2)cc1` | -16.97 |
| `Cl.c1cc(CNCc2ccc3c(c2)CCO3)cc(N2CCOCC2)n1` | -10.86 |
| `COc1ccc(-c2ccc(C(=O)NS(C)(=O)=O)c(F)c2)cc1` | -5.842 |
| `CC(=O)Nc1ncc(S(=O)(=O)Nc2ccccc2)s1` | -14.91 |
| `CN(CC1Cc2ccccc2CN1C)c1nc(N)nc2c1CCNCC2` (centres unmarked) | 16.08 |
| `CC(C)NC(=O)N1CCC(c2nnc3n2CCNC3)CC1` | 12.37 |
| `Cc1cc(C)n(CCC(=O)N2CCCC(n3nc(C)nc3C)C2)n1` (centres unmarked) | -2.504 |
| `[H][C@@]12CCN(C)[C@]1([H])CN(C(=O)COCc1nc3cc(F)ccc3[nH]1)C2` | -25.1 |
| `CN1CCN(C2CCCC2)C(CCO)C1` (centres unmarked) | 16.95 |
| `CCN(CCO)C[C@@H]1CN(C(=O)c2ccc(C)s2)C[C@@H]1CO` | -6.671 |
| `O=C(C1CCN(Cc2nc(-c3ccco3)no2)CC1)N1CCCC1` | 8.267 |
| `Cc1cc(NCC(=O)N(C)Cc2cccs2)c(C(N)=O)cc1F` | -10.62 |
| `Cc1cc(CN(C)Cc2ncc(C(C)(C)C)o2)no1` | -53.2 & 11.15 |
| `CCc1nnsc1C(=O)N(C)Cc1ccc(C)o1` | -7.539 |
| `COc1ccccc1CNCc1nn(-c2ccccc2)c2c1CCC2` | 34.31 |
| `CC(C)c1nc(CN2CCCC2Cn2cccn2)no1` (centres unmarked) | 12.59 |
| `O=C(C1CNCCN1C(=O)CCc1cccnc1)N1CCOCC1` (centres unmarked) | -4.696 |
| `Cc1nccc(N2C[C@H](NC(=O)CNS(C)(=O)=O)[C@@H](C3CC3)C2)n1` | -1.258 |
| `CCc1nnc2n1CCN(CC(=O)Nc1sccc1C#N)C2` | -6.91 |
| `CCCc1nc(C)c(CNc2nc(C)nc3onc(C)c23)s1` | -10.72 |
| `Cc1nc(-c2ccccc2)sc1CNC(=O)c1ccc(=O)n(C)c1` | -2.046 |
| `CC(C)c1nc2n(n1)CC(NCc1ncc(C(C)(C)C)o1)CC2` (centres unmarked) | -34.8 |
| `Cn1nc(CN2CCCCC2)c2c1CN(C(=O)Nc1cccc(F)c1)C2` | -47.01 |
| `CCCc1cc(NCc2nc(COC)no2)n2nccc2n1` | -22.67 |
| `Fc1ccc(OCc2nnc([C@H]3CCN(Cc4cccnc4)C3)o2)cc1` | -12.44 |
| `CC(Sc1nc(N)cc(N)n1)c1nc(C(C)(C)C)no1` (centres unmarked) | -33.02 |
| `CCOCC(=O)N(C)Cc1nc(C(F)(F)F)cs1` | -3.194 & -13.97 |
| `COC(=O)c1cccc(C(=O)N2CCN(c3cccc(C)c3C)CC2)n1` | 41.54 |
| `O=C(C1CC1)N1CCC(c2nc(O)c3c(n2)CCN(C2CCCC2)C3)C1` (centres unmarked) | -27.44 |
| `O=C(O)C(F)(F)F.O=C(O)CCC(=O)N1CCN(CC2CC2)c2ncccc2C1` | -29.06 & -9.185 |
| `COc1cc(-c2n[nH]c(CC#N)n2)cc(OC)c1OC` | -55.53 |
| `Cn1cnnc1C1CCCN(C(=O)c2cc(Cl)c3c(c2)OCO3)C1` (centres unmarked) | -16.06 |
| `Cc1noc(C)c1CN1CCC(c2nnc(Cn3cccn3)n2C)CC1` | 1.55 |
| `CC(=O)N[C@@H]1CN(c2nc(C(N)=O)cs2)C[C@H]1c1ccc(C)o1` | 14.98 |
| `COCCOc1ccccc1C(=O)Nc1c(C)cnn1CC1CC1` | -9.971 & 6.305 |
| `COCCNC(=O)Cn1cc2c(n1)c(C)nn2C(C)C` | -7.606 |
| `CC(C)CN1CCC(C(=O)NCCNC(=O)c2ccccc2)CC1` | -4.697 |
| `CN(C)CCN(Cc1ccc(Cl)cc1)C(=O)c1ccncc1` | -1.355 |
| `C[S+]([O-])c1nncn1CC(=O)c1ccc2c(c1)CCC2` (centres unmarked) | -16.34 |
| `CC1(C)OCC2(CO1)CN(C(=O)c1cccc3ccccc13)C2` | -1.337 |